Results published in patent US20230106519A1, “GOLD(III)-BIGUANIDE PRODRUGS, METHODS OF PREPARATION AND USES THEREOF” (National University of Singapore, priority 2020, published 2023).
Some results were stated once for a whole list of compounds, not compound by compound.

Test: Cyclic voltammetry
Conditions: irreversible reduction

SMILES	reduction wave in the cathodic region (Au^III to Au^I)
NC1=NC(NCCc2ccccc2)=[NH+][Au-]2([NH]1)[c]1ccccc1-c1cccc[n+]12 (centres unmarked) [Compound 1phen]	−0.6 to −1.1 V (vs. NHE)
CN(C)C1=[NH+][Au-]2([NH]C(N)=N1)[c]1ccccc1Cc1cccc[n+]12 (centres unmarked) [Compound 2met]	−0.6 to −1.1 V (vs. NHE)
